Taken from: PubChem BioAssay AID1159578 (Peter MacCallum Cancer Centre, 2015)
Aim: 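Knock-downs that alter how fast lymphatic endothelial cells migrate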 (primary screen). Cells: human lymphatic endothelial cells. Reagent: siRNA pool against human genes, 40 nM. Duration: 48 h after transfection. Detection: 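High-content imaging of dye-stained cells in a scratch assay measures filled wound area and nuclei per well; duplicate means given as ratio to mock and robust z-score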. Reading the numbers: migration robust z-score: higher = faster migration into the scratch; nuclei per well: higher = more cells in the well. Rule for the call: 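Pools averaging fewer than 3300 nuclei are never called; remaining pools count as changed when migration robust z lies outside -2 to 2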. Calls: active = migration changed; inactive = no migration change, or too few cells.
Here is an unselected part of about 18,000 reagents. Of all reagents, about 1,030 (5.7%) are marked active. 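Inactive calls also include pools with fewer than 3300 nuclei, whose migration was not assessed.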 The raw values are shown without normalisation. Unmarked entries are inactive. Further read-outs or replicates are left out here. No sequences are given here.

{"gene": "RIBC1", "migration robust z-score": 0.48, "nuclei per well, duplicate mean": 4242}
{"gene": "IL18BP", "migration robust z-score": 1.28, "nuclei per well, duplicate mean": 5447}
{"gene": "SMIM3", "migration robust z-score": -0.03, "nuclei per well, duplicate mean": 5100}
{"gene": "FOXF2", "migration robust z-score": -0.01, "nuclei per well, duplicate mean": 5820}
{"gene": "ICOSLG", "migration robust z-score": -1.14, "nuclei per well, duplicate mean": 4096}
{"gene": "SLC13A1", "migration robust z-score": 1.25, "nuclei per well, duplicate mean": 4804}
{"gene": "ASIC2", "migration robust z-score": 0.16, "nuclei per well, duplicate mean": 4703}
{"gene": "AGO1", "migration robust z-score": -0.21, "nuclei per well, duplicate mean": 5696}
{"gene": "FLOT2", "migration robust z-score": "2.19 (active)", "nuclei per well, duplicate mean": 5374}
{"gene": "DEUP1", "migration robust z-score": -0.38, "nuclei per well, duplicate mean": 6384}
{"gene": "KLK13", "migration robust z-score": 0.31, "nuclei per well, duplicate mean": 5470}
{"gene": "PRF1", "migration robust z-score": -1.04, "nuclei per well, duplicate mean": 5304}
{"gene": "ELF4", "migration robust z-score": "-2.57 (active)", "nuclei per well, duplicate mean": 4042}
{"gene": "CLINT1", "migration robust z-score": 1.25, "nuclei per well, duplicate mean": 6976}
{"gene": "PDCD11", "migration robust z-score": -0.91, "nuclei per well, duplicate mean": 5410}
{"gene": "IRAK4", "migration robust z-score": 0.28, "nuclei per well, duplicate mean": 5406}
{"gene": "FIZ1", "migration robust z-score": -0.8, "nuclei per well, duplicate mean": 5898}
{"gene": "GLIS2", "migration robust z-score": 0.96, "nuclei per well, duplicate mean": 6079}
{"gene": "NRSN1", "migration robust z-score": -1.21, "nuclei per well, duplicate mean": 6417}
{"gene": "TMED8", "migration robust z-score": -0.06, "nuclei per well, duplicate mean": 4930}
{"gene": "CTAGE1", "migration robust z-score": "2.38 (active)", "nuclei per well, duplicate mean": 6608}
{"gene": "DDHD2", "migration robust z-score": -0.66, "nuclei per well, duplicate mean": 4927}
{"gene": "AASDHPPT", "migration robust z-score": -1.17, "nuclei per well, duplicate mean": 5363}
{"gene": "SLC25A24", "migration robust z-score": -0.16, "nuclei per well, duplicate mean": 6041}
{"gene": "RIPPLY2", "migration robust z-score": -1.25, "nuclei per well, duplicate mean": 5001}
{"gene": "G3BP1", "migration robust z-score": 1.74, "nuclei per well, duplicate mean": 7032}
{"gene": "NHS", "migration robust z-score": 1.37, "nuclei per well, duplicate mean": 5741}

Entries listed so far whose target name starts with G or g:
{"gene": "GLIS2", "migration robust z-score": 0.96, "nuclei per well, duplicate mean": 6079}
{"gene": "G3BP1", "migration robust z-score": 1.74, "nuclei per well, duplicate mean": 7032}
